Laboratory results reported in patent US9643952B2, “Pyridone compound” (KYOWA HAKKO KIRIN CO., LTD., priority 2012, dated 2017).
Some results were stated once for a whole list of compounds, not compound by compound.

Molecular target: T1, human CCR10 (Homo sapiens, UniProt P46092)
T1 construct: expressed in transfected cells; host or cells: KJMGER8 cells (Namalwa cell-derived cell line); expression induced with 10 nmol/L beta-estradiol for 24 hr
T1 sequence (P46092 1-362): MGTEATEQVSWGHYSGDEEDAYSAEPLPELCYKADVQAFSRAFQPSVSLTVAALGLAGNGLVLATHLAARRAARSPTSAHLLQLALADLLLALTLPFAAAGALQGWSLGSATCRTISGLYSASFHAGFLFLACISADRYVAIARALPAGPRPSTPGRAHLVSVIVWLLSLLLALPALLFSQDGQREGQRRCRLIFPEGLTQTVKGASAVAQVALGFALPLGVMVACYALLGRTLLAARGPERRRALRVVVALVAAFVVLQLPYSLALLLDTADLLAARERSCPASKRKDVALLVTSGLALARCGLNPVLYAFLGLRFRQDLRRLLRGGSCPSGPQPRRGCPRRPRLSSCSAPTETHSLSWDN
Test: Calcium assay of human CCR10 (CCR10 antagonistic effect, CTACK-induced increase of intracellular calcium ion concentration in hCCR10G16 cells)
Format: cell-based
Conditions: human CCR10-expressing hCCR10G16 cells, 300 nmol/L human recombinant CTACK, Fluo-3, FDSS; read-out: concentration at which the increase in the calcium ion concentration is inhibited by not less than 50%

| IC50 [nM] | SMILES |
| --- | --- |
| ≤ 1000 | Cc1ccc(Nc2c(C(=O)N3CCC(c4ccc(F)cc4)CC3)cn(C)c(=O)c2Cl)c(C#N)c1 [Compound 132, 2-{3-chloro-5-[4-(4-fluorophenyl)piperidine-1-carbonyl]-1-methyl-2-oxo-1,2-dihydropyridin-4-ylamino}-5-methylbenzonitrile] |
| ≤ 1000 | CCn1cc(C(=O)N2CCC(c3ccc(F)cc3)CC2)c(Nc2ccc(OC)cc2C)c(Cl)c1=O [Compound 138, 3-chloro-1-ethyl-5-[4-(4-fluorophenyl)piperidine-1-carbonyl]-4-(4-methoxy-2-methylphenylamino)pyridin-2(1H)-one] |
| ≤ 1000 | Cn1cc(C(=O)N2CCC(c3ccc(F)cc3)CC2)c(Nc2ccc(OC(F)F)cc2)c(Cl)c1=O [Compound 77, 3-chloro-4-[4-(difluoromethoxy)phenylamino]-5-[4-(4-fluorophenyl)piperidine-1-carbonyl]-1-methylpyridin-2(1H)-one] |
| ≤ 1000 | O=C(c1cn(Cc2noc(=O)[nH]2)c(=O)cc1NCc1ccccc1)N1CCC(c2ccc(F)cc2)CC1 [Compound 33, 3-({4-(benzylamino)-5-[4-(4-fluorophenyl)piperidine-1-carbonyl]-2-oxopyridin-1(2H)-yl}methyl)-1,2,4-oxadiazole-5 (4H)-one] |
| ≤ 1000 | CCOc1ccc(Nc2c(C(=O)N3CCC(c4ccc(F)cc4)CC3)cn(C)c(=O)c2Cl)cc1 [Compound 79, 3-chloro-4-(4-ethoxyphenylamino)-5-[4-(4-fluorophenyl)piperidine-1-carbonyl]-1-methylpyridin-2(1H)-one] |
| ≤ 1000 | COn1cc(C(=O)N2CCC(c3ccc(F)cc3)CC2)c(Nc2ccc(F)cc2C)c(Cl)c1=O [Compound 194, 3-chloro-4-(4-fluoro-2-methylphenylamino)-5-[4-(4-fluorophenyl)piperidine-1-carbonyl]-1-methoxypyridin-2(1H)-one] |
| ≤ 1000 | Cc1ccc(C#N)cc1Nc1c(C(=O)N2CCC(c3ccc(F)cc3)CC2)cn(C)c(=O)c1Cl [Compound 129, 3-{3-chloro-5-[4-(4-fluorophenyl)piperidine-1-carbonyl]-1-methyl-2-oxo-1,2-dihydropyridin-4-ylamino}-4-methylbenzonitrile] |
| ≤ 1000 | Cn1cc(C(=O)N2CCC(c3ccc(F)cc3)CC2)c(Nc2ccc(S(C)(=O)=O)cc2F)c(Cl)c1=O [Compound 145, 3-chloro-4-[2-fluoro-4-(methylsulfonyl)phenylamino]-5-[4-(4-fluorophenyl)piperidine-1-carbonyl]-1-methylpyridin-2(1H)-one] |
| ≤ 1000 | COc1ccc(Nc2c(C(=O)N3CCC(c4ccc(F)cc4)CC3)cn(CCF)c(=O)c2Cl)c(C)c1 [Compound 161, 3-chloro-1-(2-fluoroethyl)-5-[4-(4-fluorophenyl)piperidine-1-carbonyl]-4-(4-methoxy-2-methylphenylamino)pyridin-2(1H)-one] |
| ≤ 1000 | Cc1ccc(Nc2c(C(=O)N3CCC(c4ccc(F)cc4)CC3)cn(C)c(=O)c2Cl)c(C)c1 [Compound 80, 3-chloro-4-(2,4-dimethylphenylamino)-5-[4-(4-fluorophenyl)piperidine-1-carbonyl]-1-methylpyridin-2(1H)-one] |
| ≤ 1000 | COCCn1cc(C(=O)N2CCC(c3ccc(F)cc3)CC2)c(Nc2ccc3scnc3c2)c(Cl)c1=O [Compound 206, 4-(benzo[d]thiazol-5-ylamino)-3-chloro-5-[4-(4-fluorophenyl)piperidine-1-carbonyl]-1-(2-methoxyethyl)pyridin-2(1H)-one] |
| ≤ 1000 | C#CCn1cc(C(=O)N2CCC(c3ccc(F)cc3)CC2)c(Nc2cc(Cl)ccc2C)c(Cl)c1=O [Compound 167, 3-chloro-4-(5-chloro-2-methylphenylamino)-5-[4-(4-fluorophenyl)piperidine-1-carbonyl]-1-(2-propynyl)pyridin-2(1H)-one] |
| ≤ 1000 | Cn1cc(C(=O)N2CCC(c3ccc(F)cc3)CC2)c(Nc2ccc(C(F)(F)F)cc2)c(Cl)c1=O [Compound 114, 3-chloro-5-[4-(4-fluorophenyl)piperidine-1-carbonyl]-1-methyl-4-[4-(trifluoromethyl)phenylamino]pyridin-2(1H)-one] |
| ≤ 1000 | Cn1cc(C(=O)N2CCC(c3ccc(F)cc3)CC2)c(NCc2ccccc2)c(C#N)c1=O [Compound 221, 4-(benzylamino)-5-[4-(4-fluorophenyl)piperidine-1-carbonyl]-1-methyl-2-oxo-1,2-dihydropyridine-3-carbonitrile] |
| ≤ 1000 | CSc1ccc(Nc2c(C(=O)N3CCC(c4ccc(F)cc4)CC3)cn(C)c(=O)c2Cl)cc1Cl [Compound 111, 3-chloro-4-[3-chloro-4-(methylthio)phenylamino]-5-[4-(4-fluorophenyl)piperidine-1-carbonyl]-1-methylpyridin-2(1H)-one] |
| ≤ 1000 | CCc1cc(C#N)ccc1Nc1c(C(=O)N2CCC(c3ccc(F)cc3)CC2)cn(C)c(=O)c1Cl [Compound 101, 4-{3-chloro-5-[4-(4-fluorophenyl)piperidine-1-carbonyl]-1-methyl-2-oxo-1,2-dihydropyridin-4-ylamino}-3-ethylbenzonitrile] |
| ≤ 1000 | Cn1cc(C(=O)N2CCC(c3ccc(F)cc3)CC2)c(Nc2ccc(F)c(C#N)c2)c(Cl)c1=O [Compound 164, 5-{3-chloro-5-[4-(4-fluorophenyl)piperidine-1-carbonyl]-1-methyl-2-oxo-1,2-dihydropyridin-4-ylamino}-2-fluorobenzonitrile] |
| ≤ 1000 | Cc1ccc(Cl)c(Nc2cc(=O)n(Cc3nccn3C)cc2C(=O)N2CCC(c3ccc(F)cc3)CC2)c1 [Compound 18, 4-(2-chloro-5-methylphenylamino)-5-[4-(4-fluorophenyl)piperidine-1-carbonyl]-1-[(1-methyl-1H-imidazol-2-yl)methyl]pyridin-2(1H)-one] |
| ≤ 1000 | Cn1cc(C(=O)N2CCC(c3ccc(F)cc3)CC2)c(Nc2cc(F)ccc2C#N)c(Cl)c1=O [Compound 131, 2-{3-chloro-5-[4-(4-fluorophenyl)piperidine-1-carbonyl]-1-methyl-2-oxo-1,2-dihydropyridin-4-ylamino}-4-fluorobenzonitrile] |
| ≤ 1000 | COc1ccc(Nc2c(C(=O)N3CCC(c4ccc(F)cc4)CC3)cn(C)c(=O)c2C)c(F)c1 [Compound 191, 4-(2-fluoro-4-methoxyphenylamino)-5-[4-(4-fluorophenyl)piperidine-1-carbonyl]-1,3-dimethylpyridin-2(1H)-one] |
| ≤ 1000 | Cn1cc(C(=O)N2CCC(c3ccc(F)cc3)CC2)c(Nc2cccc3c2OC(C)(C)C3)c(Cl)c1=O [Compound 176, 3-chloro-4-(2,2-dimethyl-2,3-dihydrobenzofuran-7-ylamino)-5-[4-(4-fluorophenyl)piperidine-1-carbonyl]-1-methylpyridin-2(1H)-one] |
| ≤ 1000 | Cn1cc(C(=O)N2CCC(c3ccc(F)cc3)CC2)c(Nc2cc(F)ccc2F)c(Cl)c1=O [Compound 82, 3-chloro-4-(2,5-difluorophenylamino)-5-[4-(4-fluorophenyl)piperidine-1-carbonyl]-1-methylpyridin-2(1H)-one] |
| ≤ 1000 | Cn1cc(C(=O)N2CCC(c3ccc(F)cc3)CC2)c(Nc2ccc3c(c2)OCCO3)c(Cl)c1=O [Compound 181, 3-chloro-4-(2,3-dihydrobenzo[b][1,4]dioxin-6-ylamino)-5-[4-(4-fluorophenyl)piperidine-1-carbonyl]-1-methylpyridin-2(1H)-one] |
| ≤ 1000 | Cn1cc(C(=O)N2CCC(c3ccc(F)cc3)CC2)c(Nc2ccc(S(C)(=O)=O)c(Cl)c2)c(Cl)c1=O [Compound 123, 3-chloro-4-[3-chloro-4-(methylsulfonyl)phenylamino]-5-[4-(4-fluorophenyl)piperidine-1-carbonyl]-1-methylpyridin-2(1H)-one] |
| ≤ 1000 | O=C(c1cn(OCCO)c(=O)c(Cl)c1NCc1cccnc1)N1CCC(c2ccc(F)cc2)CC1 [Compound 232, 3-chloro-5-[4-(4-fluorophenyl)piperidine-1-carbonyl]-1-(2-hydroxyethoxy)-4-(pyridin-3-ylmethylamino)pyridin-2(1H)-one] |
| ≤ 1000 | Cc1ccc(Cl)cc1Nc1c(C(=O)N2CCC(c3ccc(F)cc3)CC2)cn(CC#N)c(=O)c1Cl [Compound 168, 2-{3-chloro-4-(5-chloro-2-methylphenylamino)-5-[4-(4-fluorophenyl)piperidine-1-carbonyl]-2-oxopyridine-1(2H)-yl}acetonitrile] |
| ≤ 1000 | Cc1cc(F)ccc1Nc1cc(=O)n(Cc2noc(=O)[nH]2)cc1C(=O)N1CCC(c2ccc(F)cc2)CC1 [Compound 24, 3-({4-(4-fluoro-2-methylphenylamino)-5-[4-(4-fluorophenyl)piperidine-1-carbonyl]-2-oxopyridin-1(2H)-yl}methyl)-1,2,4-oxadiazol-5(4H)-one] |
| ≤ 1000 | Cn1cc(C(=O)N2CCC(c3ccc(F)cc3)CC2)c(Nc2ccc(C#N)c(C#N)c2)c(Cl)c1=O [Compound 96, 4-{3-chloro-5-[4-(4-fluorophenyl)piperidine-1-carbonyl]-1-methyl-2-oxo-1,2-dihydropyridin-4-ylamino}phthalonitrile] |
| ≤ 1000 | Cn1cc(C(=O)N2CCC(c3ccc(F)cc3)CC2)c(Nc2ccc3cnn(C)c3c2)c(Cl)c1=O [Compound 175, 3-chloro-5-[4-(4-fluorophenyl)piperidine-1-carbonyl]-1-methyl-4-(1-methyl-1H-indazol-6-ylamino)pyridin-2(1H)-one] |
